We go through 37 targets from the supplement of paper PMC12819154, “High-throughput peptide-centric local stability assay extends protein–ligand identification to membrane proteins, tissues and bacteria” (Nature Structural & Molecular Biology, 2025).

Amino acid sequences for entries named in this document (tags omitted). A change or cut given only in a name is not applied to a line headed by its entry.
UniProt Q8VE91: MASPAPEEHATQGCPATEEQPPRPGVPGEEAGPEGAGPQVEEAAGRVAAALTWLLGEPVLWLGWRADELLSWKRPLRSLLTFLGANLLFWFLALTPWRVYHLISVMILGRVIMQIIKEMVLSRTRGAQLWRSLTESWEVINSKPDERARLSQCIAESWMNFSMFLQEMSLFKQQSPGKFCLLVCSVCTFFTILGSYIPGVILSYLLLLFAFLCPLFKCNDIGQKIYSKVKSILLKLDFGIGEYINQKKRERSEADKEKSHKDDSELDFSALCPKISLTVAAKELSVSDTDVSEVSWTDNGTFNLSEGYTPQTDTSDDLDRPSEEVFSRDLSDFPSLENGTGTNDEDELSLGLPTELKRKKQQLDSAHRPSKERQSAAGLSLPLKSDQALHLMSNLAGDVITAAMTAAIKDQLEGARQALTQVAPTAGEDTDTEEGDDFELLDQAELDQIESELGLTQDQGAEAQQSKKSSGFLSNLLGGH
UniProt Q91YX0: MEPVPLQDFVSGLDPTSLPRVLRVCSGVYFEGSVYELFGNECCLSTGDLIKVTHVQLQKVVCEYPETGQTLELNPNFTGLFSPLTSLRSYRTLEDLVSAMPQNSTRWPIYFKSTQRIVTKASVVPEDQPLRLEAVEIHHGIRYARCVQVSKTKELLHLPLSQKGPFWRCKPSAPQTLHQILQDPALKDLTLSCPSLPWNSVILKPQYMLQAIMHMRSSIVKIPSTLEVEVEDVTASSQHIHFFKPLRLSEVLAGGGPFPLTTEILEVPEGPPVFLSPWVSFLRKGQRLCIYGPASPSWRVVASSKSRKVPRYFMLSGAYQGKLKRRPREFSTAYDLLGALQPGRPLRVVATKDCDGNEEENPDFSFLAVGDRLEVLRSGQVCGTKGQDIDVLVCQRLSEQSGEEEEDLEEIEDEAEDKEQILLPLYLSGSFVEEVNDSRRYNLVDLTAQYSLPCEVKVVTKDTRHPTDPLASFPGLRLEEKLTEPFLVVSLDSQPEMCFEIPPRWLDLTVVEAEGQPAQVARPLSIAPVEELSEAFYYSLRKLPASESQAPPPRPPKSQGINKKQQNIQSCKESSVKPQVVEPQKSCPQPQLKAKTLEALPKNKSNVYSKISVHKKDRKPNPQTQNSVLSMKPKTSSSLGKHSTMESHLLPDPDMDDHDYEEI
UniProt Q91WM2: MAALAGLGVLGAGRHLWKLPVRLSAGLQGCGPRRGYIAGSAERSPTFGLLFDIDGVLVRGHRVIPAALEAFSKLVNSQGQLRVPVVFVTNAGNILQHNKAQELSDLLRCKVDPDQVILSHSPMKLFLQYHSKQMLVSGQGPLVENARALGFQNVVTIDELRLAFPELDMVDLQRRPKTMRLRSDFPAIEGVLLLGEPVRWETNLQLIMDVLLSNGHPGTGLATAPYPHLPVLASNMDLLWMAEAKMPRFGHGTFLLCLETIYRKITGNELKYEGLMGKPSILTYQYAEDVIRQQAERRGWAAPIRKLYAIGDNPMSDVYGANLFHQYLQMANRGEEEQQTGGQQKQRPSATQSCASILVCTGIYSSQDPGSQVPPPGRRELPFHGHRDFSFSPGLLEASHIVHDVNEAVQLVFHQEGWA
UniProt Q91VC3, whole entry: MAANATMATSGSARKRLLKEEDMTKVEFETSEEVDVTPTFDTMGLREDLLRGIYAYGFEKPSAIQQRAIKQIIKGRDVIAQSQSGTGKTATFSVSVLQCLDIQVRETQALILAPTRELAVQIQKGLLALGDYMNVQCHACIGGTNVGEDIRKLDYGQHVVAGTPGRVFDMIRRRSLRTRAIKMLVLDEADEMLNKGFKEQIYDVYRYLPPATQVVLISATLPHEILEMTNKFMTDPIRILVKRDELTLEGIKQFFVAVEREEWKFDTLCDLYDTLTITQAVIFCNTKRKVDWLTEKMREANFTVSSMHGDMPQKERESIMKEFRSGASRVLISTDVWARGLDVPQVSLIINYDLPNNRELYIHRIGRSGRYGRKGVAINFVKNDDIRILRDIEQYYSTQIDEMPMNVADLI
UniProt Q8VE99: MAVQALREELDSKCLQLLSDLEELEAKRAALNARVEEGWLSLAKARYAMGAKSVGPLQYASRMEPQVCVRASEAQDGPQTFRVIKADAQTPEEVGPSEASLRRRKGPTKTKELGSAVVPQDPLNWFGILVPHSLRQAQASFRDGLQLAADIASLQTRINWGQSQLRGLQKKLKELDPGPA
UniProt Q922V4: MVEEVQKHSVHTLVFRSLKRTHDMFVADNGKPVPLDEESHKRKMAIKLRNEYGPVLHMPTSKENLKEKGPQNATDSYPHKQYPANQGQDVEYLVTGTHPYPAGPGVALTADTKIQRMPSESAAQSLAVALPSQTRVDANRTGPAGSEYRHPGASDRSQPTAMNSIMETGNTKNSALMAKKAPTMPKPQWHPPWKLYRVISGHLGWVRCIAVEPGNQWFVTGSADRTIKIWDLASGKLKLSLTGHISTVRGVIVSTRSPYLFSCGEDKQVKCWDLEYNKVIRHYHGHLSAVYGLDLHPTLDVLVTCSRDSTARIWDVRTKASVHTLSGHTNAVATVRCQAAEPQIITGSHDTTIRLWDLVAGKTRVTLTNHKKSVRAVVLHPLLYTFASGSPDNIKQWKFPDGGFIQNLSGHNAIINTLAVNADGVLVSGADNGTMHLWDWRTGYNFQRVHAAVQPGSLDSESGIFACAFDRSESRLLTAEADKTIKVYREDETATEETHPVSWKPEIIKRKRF
UniProt Q91XV3: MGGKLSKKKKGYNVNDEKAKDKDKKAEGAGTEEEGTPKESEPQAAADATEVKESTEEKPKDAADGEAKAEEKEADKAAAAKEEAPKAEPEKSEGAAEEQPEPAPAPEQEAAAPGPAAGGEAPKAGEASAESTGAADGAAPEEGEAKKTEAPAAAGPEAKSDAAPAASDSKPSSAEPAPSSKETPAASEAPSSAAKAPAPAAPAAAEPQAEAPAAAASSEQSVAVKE
UniProt Q91YE7, whole entry: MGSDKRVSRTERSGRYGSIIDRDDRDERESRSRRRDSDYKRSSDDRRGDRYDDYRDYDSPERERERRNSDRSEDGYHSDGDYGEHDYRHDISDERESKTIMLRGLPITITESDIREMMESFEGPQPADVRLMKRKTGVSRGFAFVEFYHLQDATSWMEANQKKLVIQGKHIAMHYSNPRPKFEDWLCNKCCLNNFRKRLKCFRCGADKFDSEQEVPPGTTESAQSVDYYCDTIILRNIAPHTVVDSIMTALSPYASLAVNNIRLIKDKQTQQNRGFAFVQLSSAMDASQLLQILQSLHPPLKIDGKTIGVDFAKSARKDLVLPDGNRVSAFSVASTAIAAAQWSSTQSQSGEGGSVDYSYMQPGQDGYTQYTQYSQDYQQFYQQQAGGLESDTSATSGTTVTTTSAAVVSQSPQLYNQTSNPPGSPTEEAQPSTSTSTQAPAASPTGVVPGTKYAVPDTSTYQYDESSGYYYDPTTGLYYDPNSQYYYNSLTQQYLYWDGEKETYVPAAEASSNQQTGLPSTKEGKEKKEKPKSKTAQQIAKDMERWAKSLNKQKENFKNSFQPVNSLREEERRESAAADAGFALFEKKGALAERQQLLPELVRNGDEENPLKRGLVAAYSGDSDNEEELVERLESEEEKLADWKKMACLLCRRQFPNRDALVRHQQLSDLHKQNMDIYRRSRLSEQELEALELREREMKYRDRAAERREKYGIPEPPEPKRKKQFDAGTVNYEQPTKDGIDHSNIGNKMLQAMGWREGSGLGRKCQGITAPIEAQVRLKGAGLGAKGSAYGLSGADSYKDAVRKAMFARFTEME
UniProt Q91ZU1: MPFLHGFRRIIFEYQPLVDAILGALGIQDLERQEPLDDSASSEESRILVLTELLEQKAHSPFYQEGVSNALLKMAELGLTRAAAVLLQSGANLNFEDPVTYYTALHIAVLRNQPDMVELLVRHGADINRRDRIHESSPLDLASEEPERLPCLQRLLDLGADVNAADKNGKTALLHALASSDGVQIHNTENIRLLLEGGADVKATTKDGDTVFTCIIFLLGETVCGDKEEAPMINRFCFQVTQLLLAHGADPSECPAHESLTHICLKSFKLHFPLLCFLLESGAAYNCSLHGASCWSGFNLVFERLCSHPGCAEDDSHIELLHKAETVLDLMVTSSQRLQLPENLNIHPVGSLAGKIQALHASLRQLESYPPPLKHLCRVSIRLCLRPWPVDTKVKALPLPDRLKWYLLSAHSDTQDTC
UniProt Q91WU5: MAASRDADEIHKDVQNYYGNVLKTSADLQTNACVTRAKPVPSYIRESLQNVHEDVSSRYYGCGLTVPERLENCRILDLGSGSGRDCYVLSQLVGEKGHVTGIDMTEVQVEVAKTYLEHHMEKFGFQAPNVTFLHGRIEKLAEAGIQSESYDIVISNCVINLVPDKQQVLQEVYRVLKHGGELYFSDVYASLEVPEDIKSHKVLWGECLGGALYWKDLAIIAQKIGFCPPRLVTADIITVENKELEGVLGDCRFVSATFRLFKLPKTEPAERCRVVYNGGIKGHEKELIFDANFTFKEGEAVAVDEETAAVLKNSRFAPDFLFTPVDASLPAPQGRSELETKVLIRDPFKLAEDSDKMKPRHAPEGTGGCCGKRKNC
UniProt Q921I1, whole entry: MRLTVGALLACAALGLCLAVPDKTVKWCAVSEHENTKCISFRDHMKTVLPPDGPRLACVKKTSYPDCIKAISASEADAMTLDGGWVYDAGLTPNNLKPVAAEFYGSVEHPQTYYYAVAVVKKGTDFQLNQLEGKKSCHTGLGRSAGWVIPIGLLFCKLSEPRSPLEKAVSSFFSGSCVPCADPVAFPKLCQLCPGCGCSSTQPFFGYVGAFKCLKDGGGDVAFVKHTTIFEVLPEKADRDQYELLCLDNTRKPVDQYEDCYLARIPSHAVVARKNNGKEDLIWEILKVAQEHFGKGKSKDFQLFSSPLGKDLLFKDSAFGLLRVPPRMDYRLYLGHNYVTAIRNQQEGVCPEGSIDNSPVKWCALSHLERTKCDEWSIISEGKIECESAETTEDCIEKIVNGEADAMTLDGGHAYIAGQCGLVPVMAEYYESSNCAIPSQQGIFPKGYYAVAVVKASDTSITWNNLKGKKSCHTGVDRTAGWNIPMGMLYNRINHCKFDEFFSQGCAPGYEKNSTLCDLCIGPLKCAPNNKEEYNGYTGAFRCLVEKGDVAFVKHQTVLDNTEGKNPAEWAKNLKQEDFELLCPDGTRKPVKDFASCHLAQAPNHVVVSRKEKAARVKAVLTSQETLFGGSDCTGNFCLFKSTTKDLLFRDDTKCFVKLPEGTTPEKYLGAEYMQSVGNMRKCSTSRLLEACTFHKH
UniProt Q91X84: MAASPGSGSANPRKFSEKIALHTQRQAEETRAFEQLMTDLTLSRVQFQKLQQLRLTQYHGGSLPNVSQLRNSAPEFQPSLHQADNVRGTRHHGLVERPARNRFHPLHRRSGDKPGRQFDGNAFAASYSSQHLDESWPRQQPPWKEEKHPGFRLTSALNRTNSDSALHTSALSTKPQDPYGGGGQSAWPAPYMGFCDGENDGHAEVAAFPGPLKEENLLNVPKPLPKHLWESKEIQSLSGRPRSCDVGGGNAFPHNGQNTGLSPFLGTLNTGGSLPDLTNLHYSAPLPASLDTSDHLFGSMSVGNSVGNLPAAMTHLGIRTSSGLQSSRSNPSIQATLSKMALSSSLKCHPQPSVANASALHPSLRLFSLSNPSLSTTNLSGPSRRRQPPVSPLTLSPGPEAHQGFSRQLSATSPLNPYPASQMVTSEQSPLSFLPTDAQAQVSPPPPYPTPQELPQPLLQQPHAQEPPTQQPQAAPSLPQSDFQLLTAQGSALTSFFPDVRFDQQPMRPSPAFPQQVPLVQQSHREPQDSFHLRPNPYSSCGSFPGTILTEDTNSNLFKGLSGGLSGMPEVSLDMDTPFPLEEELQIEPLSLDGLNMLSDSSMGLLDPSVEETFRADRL
UniProt Q922U2: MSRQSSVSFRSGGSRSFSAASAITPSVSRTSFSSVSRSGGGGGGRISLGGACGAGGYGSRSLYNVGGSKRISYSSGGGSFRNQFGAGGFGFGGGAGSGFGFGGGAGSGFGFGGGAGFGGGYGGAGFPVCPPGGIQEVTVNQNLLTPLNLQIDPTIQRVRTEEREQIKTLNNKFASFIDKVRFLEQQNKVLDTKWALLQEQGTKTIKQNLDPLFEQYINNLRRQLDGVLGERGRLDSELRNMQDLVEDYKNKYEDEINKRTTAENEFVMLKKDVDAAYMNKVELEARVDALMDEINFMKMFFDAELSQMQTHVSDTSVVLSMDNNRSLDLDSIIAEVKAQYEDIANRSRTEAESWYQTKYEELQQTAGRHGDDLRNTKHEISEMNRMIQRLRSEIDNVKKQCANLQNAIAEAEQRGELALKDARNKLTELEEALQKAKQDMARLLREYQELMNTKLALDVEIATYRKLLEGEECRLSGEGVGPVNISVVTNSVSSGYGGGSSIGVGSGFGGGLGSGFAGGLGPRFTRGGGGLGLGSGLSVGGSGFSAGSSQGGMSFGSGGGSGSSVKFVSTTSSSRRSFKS

The other results are listed elsewhere or left out. Most entries show no effect beyond the scatter of the controls.

Compound in this experiment: CN[C@@H]1C[C@H]2O[C@@](C)([C@@H]1OC)n1c3ccccc3c3c4c(c5c6ccccc6n2c5c31)C(=O)NC4 [staurosporine]
Briefly: log2 fold change of pooled soluble protein (PISA), ligand vs vehicle (log2 ratio); higher = more thermally stabilized. To be noted: ligand concentration: 20 uM; assay format: PISA pool 52.9/55.5/58.6 C.
Consider UniProt Q91WK0, for which the “log2 fold change of pooled soluble protein” value (“log2 fold change” for short) turned out to be 0.0434.

As for UniProt Q8VE91, the “log2 fold change” value was -0.0989.

Turning to UniProt Q8VDN2, the “log2 fold change” value was -0.0774.

UniProt Q921V5: the “log2 fold change” value is -0.123.

On to UniProt Q923X1, for which the “log2 fold change” value came out at 0.1.

As to UniProt Q91YX0, the “log2 fold change” value was -0.187.

Turning to UniProt Q91X91, the “log2 fold change” value was -0.0967.

Take UniProt Q91WM2: the “log2 fold change” value was -0.213.

As to UniProt Q8VDM4, the “log2 fold change” value is -0.086.

As for UniProt Q91VC3, the “log2 fold change” value stood at 0.0631.

For the target UniProt Q91VH6, the “log2 fold change” value came to 0.0251.

In the case of UniProt Q91ZN5, the “log2 fold change” value was -0.104.

With UniProt Q91YP3, the “log2 fold change” value was -0.153.

Regarding UniProt Q921W4, the “log2 fold change” value is -0.0341.

On to UniProt Q8VE99, for which the “log2 fold change” value was -0.0705.

For the target UniProt Q922V4, the “log2 fold change” value was -0.0579.

For the target UniProt Q91VC9, the “log2 fold change” value was -0.0383.

Regarding UniProt Q91W59, the “log2 fold change” value was -0.192.

For UniProt Q921M4, the “log2 fold change” value is -0.0664.

In the case of UniProt Q91XV3, the “log2 fold change” value was -0.0729.

UniProt Q91YE7: the “log2 fold change” value is -0.526.

As to UniProt Q99J99, the “log2 fold change” value came out at 0.0235.

As to UniProt Q99J77, the “log2 fold change” value was -0.1.

Turning to UniProt Q922U1, the “log2 fold change” value is -0.109.

Regarding UniProt Q91WT9, the “log2 fold change” value was -0.0387.

For UniProt Q91XD6, the “log2 fold change” value was -0.0296.

With UniProt Q91ZU1, the “log2 fold change” value was -0.0741.

On to UniProt Q8VEK0, for which the “log2 fold change” value was -0.012.

Take UniProt Q920E5: the “log2 fold change” value is -0.0401.

On to UniProt Q91WU5, for which the “log2 fold change” value was determined as 0.0839.

On to UniProt Q921I1, for which the “log2 fold change” value worked out at 0.00344.

In the case of UniProt Q91VS8, the “log2 fold change” value is -0.361.

For UniProt Q91X84, the “log2 fold change” value was -0.631.

In the case of UniProt Q8VCW4, the “log2 fold change” value amounted to 0.476.

UniProt Q922H9: the “log2 fold change” value was -0.156.

Turning to UniProt Q8VIJ6, the “log2 fold change” value was -0.0378.

UniProt Q922U2: the “log2 fold change” value is -0.226.
